# Primary screen of a compound library

Values are the deposited “Percent Effect”, in %.
How 0% and 100% were set is not recorded. Most values in the screen are low, and negative values occur.
Compounds were drawn at random from those tested, without regard to their results.

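Whole-parasite assay of Trypanosoma brucei over 72 hours; the read-out is not stated. Compounds at 30 µM. Direction is inferred from retests: higher values go with stronger inhibition. Values scatter widely below zero; nearly all retest evidence comes from the higher of the two concentrations used. About 64,000 compounds were tested under these conditions; 1.5% (about 940) showed 50% or more at least once.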

* Cc1[nH]c2ccccc2c1-c1ccnc(N[C@@H](CO)C(C)C)n1 | 11.27%
* Cc1cc(C)n(CC(=O)N2CCC(c3nc(C)no3)CC2)n1 | 6.336%
* CNC(=O)c1ccc(C2CCCN(C(=O)c3c(C)noc3C)C2)nc1 (stereo not shown) | -22.1%
* CN(C)CCCN1CC2(CCN(C3CCCOC3)CC2)OC1=O (stereo not shown) | -15.86%
* CCN1CCCC1Cn1ccc2c(OC)c(OC)ccc2c1=O (stereo not shown) | 13.53%
* Cc1ncc(CN2CCOC(CNc3cccnn3)C2)s1 (stereo not shown) | 7.383%
* [H][C@@]12CN(C(=O)N(C)C)C[C@]1([H])C(=O)NC21CCN(C(=O)NC(C)C)CC1 | -10.22%
* CN(C)C(C(=O)NCCn1cccc1)c1cccc(F)c1 (stereo not shown) | -2.327%
* CC(C)N1CCN(C(=O)Nc2cnc3c(cnn3C(C)C)c2)CC1 | -1.866%
* CN(C)CCN1CCC2(CCCN(Cc3cccn3C)C2)C1=O.O=C(O)C(F)(F)F.O=C(O)C(F)(F)F (stereo not shown) | -13.86%
* CCS(=O)(=O)N1CCC2(CCN(Cc3cccc(OC)c3)CC2)CC1.O=C(O)C(F)(F)F | -9.633%
* CCN1CCOCC12CCN(c1cnccn1)CC2.O=C(O)C(F)(F)F | -51.34%
* COCC(C)(C#N)NC(=O)c1cn(-c2cccc(Cl)c2F)nn1 (stereo not shown) | -42.78%
* CCc1[nH]c2c(CNc3nc(C)cc(NC)n3)cc(C)cc2c1C | -59.26%
* CN1C(=O)CC(C(=O)O)C12CCN(c1ccc3ccccc3n1)CC2 (stereo not shown) | -0.482%
* O=C(Cc1ccc(CO)cc1)N1CCN(c2ccccc2Cl)C(=O)C1 | -18.93%
* O=C(O)C(F)(F)F.[H][C@@]12CN(C(=O)[C@H]3CCCO3)C[C@]1([H])C(=O)N(CCN1CCCC1)C2 | -8.445%
* Cc1nccn1CCCn1cncc1-c1ccc2c(c1)CCC(C)N2C.Cl (stereo not shown) | 17.11%
* CC(C)c1noc(CCC(=O)N2CCCC(n3ccnc3)C2)n1 (stereo not shown) | -7.379%
* Cn1cc(C(C)(O)CNc2ccccn2)cn1 (stereo not shown) | 0.2253%
* COc1cc2c(cc1CNC(=O)Cc1cc(C)on1)OC(C)C2 (stereo not shown) | 7.454%
* CNC(=O)CN1CCC2(CCCN(CC3CCOC3)C2)CC1.O=C(O)C(F)(F)F.O=C(O)C(F)(F)F (stereo not shown) | -52.86%
* COC1CCN(S(=O)(=O)N2CC[C@@](O)(C3CCC3)[C@H](C)C2)CC1 | -50.9%
* CC(C)=CCC1(CO)CCCN(Cc2cnc(N3CCOCC3)nc2)C1 (stereo not shown) | -4.546%
* COc1nsc2nc(C3CCCN3c3ncccn3)ccc12 (stereo not shown) | 47.06%
* COc1ccc(C(=O)N2CCC(Nc3cccnn3)CC2)c(F)c1 | -12.21%
* CCn1c(C2CCCN(Cc3cc(C)cc(C)c3)C2)nn(C)c1=O (stereo not shown) | -53.74%
* O=C(NCC1CC1)C1CCC2(CCN(C(=O)c3cnccn3)CC2)O1 (stereo not shown) | -46.47%
* Cc1nccn1C1CCCN(C(=O)c2ccc3nncn3c2)C1 (stereo not shown) | 3.895%
* CC(=O)NCCc1ccc(S(=O)(=O)Nc2cc(F)ccc2C)s1 | 1.248%
* COc1cccc(-c2n[nH]c3c2CN(C(=O)c2ccncc2)CC3)c1 | -30.06%
* Cc1n[nH]cc1CNC(C)c1cccc(N2CCCC2=O)c1.Cl (stereo not shown) | -76.56%
* CN1CCOC(C(=O)N2CCC3(CCCCC3)C2)C1 (stereo not shown) | -11.44%
* CCC(Nc1nnnn1-c1ccccc1)C(=O)Nc1nc(C)cs1 (stereo not shown) | -18.43%
* O=C(C1CCOC1)N1CCC(Cn2cc(-c3ccsc3)nn2)CC1 (stereo not shown) | -1.629%
* O=C(NCC(O)c1ccc(F)cc1F)c1cccnc1O (stereo not shown) | -102.8%
* Nc1c(N2CCCC2)ncnc1N1CCOCC1 | -42.31%
* CNS(=O)(=O)CC(=O)NC(C)Cc1ccccc1Br (stereo not shown) | -27.7%
* CC(NC(=O)c1cccs1)(C(N)=O)c1cccc(C(F)(F)F)c1 (stereo not shown) | -33.79%
* O=C(c1ccc(C2CCCN2C(=O)c2cscn2)s1)N1CCSCC1 (stereo not shown) | -15.08%
* CN(CCO)Cc1nnc(C2CCN(C(=O)C(C)(C)C)CC2)n1C | -10.9%
* Fc1ccc(OCCNC2CCN(Cc3ccccn3)CC2)c(F)c1 | 1.479%
* Cc1nc(CN2C(=O)CCC23CCN(c2ncccn2)CC3)cs1.O=C(O)C(F)(F)F | 31.58%
* Cc1cn2c(n1)CCC(NC(=O)CCCOCc1ccccc1)C2 (stereo not shown) | -12.92%
* Cc1noc(C)c1CCC(=O)N1CCCN(Cc2cccs2)CC1 | 13.25%
* O=C(NCc1nnc2n1CCCCC2)N(Cc1ccncc1)C1CC1 | -24.99%
* CCCc1cc(=O)n(CC(=O)NCCOC)c(-n2nc(C)cc2C)n1 | -11.28%
* CCc1nccn1CC(=O)Nc1cccc(C(=O)OC)c1 | -36.16%

The first 5 entries again:

| Compound | effect |
|---|---|
| `Cc1[nH]c2ccccc2c1-c1ccnc(N[C@@H](CO)C(C)C)n1` | 11.27 |
| `Cc1cc(C)n(CC(=O)N2CCC(c3nc(C)no3)CC2)n1` | 6.336 |
| `CNC(=O)c1ccc(C2CCCN(C(=O)c3c(C)noc3C)C2)nc1` (stereo not shown) | -22.1 |
| `CN(C)CCCN1CC2(CCN(C3CCCOC3)CC2)OC1=O` (stereo not shown) | -15.86 |
| `CCN1CCCC1Cn1ccc2c(OC)c(OC)ccc2c1=O` (stereo not shown) | 13.53 |

From ChEMBL document CHEMBL3988442, “University of Dundee, Small-Polar-MMV Screening Library” (2021).